Earlier results in patent publication US8679552B2, “Acne vulgaris treatment regimen” (priority 2008, dated 2014).
Some entries share one result that the patent states for a list of compounds. For at least one compound, name, drawing or mass did not settle the structure.

Test system: 5 alpha-reductase
Conditions: concentration of 100 microMolar

| Structure (SMILES) | inhibition of 5 alpha-reductase activity |
| --- | --- |
| O=c1c(-c2ccc(O)cc2)coc2cc(O)cc(O)c12 [Genistein] | greater than 80% |
| COc1ccc(-c2coc3cc(O)cc(O)c3c2=O)cc1 [biochanin A] | greater than 80% |
| Oc1ccc([C@H]2COc3cc(O)ccc3C2)cc1 [equol] | greater than 80% |
